Assay results as given in the supplement of paper PMC12819154, “High-throughput peptide-centric local stability assay extends protein–ligand identification to membrane proteins, tissues and bacteria” (Nature Structural & Molecular Biology, 2025).
This is one part of the list. Small differences around the control level are noise.

By UniProt entry, the sequences of proteins in these tests, tags left out. Where a name states a change or a piece, a line headed by the entry shows the natural chain unless it says otherwise.
UniProt P14209: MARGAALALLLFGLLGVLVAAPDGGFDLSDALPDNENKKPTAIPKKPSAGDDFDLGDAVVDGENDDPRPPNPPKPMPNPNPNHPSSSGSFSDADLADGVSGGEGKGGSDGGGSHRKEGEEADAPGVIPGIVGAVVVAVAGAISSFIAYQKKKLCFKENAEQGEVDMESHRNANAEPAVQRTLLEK
UniProt P23109: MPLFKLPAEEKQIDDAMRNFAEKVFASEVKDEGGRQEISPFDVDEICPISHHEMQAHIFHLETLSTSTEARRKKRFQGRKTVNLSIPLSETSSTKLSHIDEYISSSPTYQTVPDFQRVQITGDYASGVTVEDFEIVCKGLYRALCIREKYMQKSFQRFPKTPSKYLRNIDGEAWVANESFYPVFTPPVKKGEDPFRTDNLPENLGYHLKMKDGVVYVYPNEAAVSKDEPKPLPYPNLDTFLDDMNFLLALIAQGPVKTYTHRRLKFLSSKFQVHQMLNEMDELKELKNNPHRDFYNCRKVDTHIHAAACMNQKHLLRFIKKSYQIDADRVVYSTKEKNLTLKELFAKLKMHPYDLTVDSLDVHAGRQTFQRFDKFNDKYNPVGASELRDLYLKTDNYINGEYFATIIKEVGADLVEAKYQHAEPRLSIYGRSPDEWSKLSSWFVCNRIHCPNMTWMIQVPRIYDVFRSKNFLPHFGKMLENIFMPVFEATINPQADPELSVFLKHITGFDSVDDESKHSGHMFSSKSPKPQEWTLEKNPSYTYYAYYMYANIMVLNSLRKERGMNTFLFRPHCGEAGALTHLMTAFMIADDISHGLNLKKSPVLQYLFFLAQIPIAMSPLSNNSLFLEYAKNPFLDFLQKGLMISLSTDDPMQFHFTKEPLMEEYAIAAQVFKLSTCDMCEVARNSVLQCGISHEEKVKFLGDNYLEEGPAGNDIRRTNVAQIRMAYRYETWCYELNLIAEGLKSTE
UniProt P21912: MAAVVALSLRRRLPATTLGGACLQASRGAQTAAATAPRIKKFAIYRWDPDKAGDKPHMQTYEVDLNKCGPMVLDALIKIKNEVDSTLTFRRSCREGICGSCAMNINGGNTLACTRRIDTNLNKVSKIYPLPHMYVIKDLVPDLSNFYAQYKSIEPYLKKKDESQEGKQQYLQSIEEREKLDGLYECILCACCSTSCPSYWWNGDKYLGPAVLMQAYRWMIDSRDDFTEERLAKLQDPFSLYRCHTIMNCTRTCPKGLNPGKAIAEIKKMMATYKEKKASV
UniProt P21580: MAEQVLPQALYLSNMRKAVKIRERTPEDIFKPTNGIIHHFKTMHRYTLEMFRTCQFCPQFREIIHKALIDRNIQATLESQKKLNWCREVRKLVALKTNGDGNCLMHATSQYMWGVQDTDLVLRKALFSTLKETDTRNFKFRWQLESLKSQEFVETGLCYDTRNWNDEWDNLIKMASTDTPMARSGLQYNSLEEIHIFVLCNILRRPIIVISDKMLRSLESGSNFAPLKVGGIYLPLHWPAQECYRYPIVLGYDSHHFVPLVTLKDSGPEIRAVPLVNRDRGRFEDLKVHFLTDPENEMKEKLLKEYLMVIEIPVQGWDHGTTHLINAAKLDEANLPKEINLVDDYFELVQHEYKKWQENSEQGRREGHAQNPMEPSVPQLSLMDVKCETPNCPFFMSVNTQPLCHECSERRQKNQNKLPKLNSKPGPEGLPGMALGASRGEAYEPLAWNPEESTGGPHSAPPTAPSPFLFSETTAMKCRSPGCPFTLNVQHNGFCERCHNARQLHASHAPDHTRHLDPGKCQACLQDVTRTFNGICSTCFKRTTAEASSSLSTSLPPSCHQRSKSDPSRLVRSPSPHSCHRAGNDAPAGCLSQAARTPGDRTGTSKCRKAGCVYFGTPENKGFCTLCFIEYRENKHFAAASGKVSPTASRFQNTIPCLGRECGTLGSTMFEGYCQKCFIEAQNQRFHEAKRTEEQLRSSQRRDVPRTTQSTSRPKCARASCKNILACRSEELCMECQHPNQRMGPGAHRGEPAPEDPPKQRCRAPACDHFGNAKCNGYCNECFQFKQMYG
UniProt P16930: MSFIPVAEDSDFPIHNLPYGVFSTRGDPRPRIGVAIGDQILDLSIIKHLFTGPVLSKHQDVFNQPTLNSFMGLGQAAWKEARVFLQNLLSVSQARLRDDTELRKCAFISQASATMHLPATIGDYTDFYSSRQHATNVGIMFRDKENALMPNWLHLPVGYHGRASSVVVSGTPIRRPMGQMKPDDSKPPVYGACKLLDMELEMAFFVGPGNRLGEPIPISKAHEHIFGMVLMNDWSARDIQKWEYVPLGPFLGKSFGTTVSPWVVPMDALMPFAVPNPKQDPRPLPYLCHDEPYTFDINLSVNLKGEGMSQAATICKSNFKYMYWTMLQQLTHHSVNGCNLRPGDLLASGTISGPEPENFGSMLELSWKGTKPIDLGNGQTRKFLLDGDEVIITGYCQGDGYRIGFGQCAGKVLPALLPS
UniProt P14618, whole entry, looked up: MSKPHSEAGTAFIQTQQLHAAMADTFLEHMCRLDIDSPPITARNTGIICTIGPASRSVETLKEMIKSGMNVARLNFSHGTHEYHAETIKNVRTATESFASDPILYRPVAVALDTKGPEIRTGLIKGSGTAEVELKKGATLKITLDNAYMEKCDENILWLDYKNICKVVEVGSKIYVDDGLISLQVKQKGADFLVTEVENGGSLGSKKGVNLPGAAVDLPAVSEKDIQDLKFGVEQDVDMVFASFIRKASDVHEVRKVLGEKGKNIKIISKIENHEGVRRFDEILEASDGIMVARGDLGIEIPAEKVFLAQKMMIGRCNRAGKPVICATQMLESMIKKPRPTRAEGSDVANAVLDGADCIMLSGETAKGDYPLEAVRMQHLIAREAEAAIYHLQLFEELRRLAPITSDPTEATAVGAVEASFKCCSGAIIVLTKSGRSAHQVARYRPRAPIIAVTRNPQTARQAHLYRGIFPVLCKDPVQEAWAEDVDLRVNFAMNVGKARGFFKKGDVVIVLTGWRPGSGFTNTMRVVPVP
UniProt P21283, whole entry: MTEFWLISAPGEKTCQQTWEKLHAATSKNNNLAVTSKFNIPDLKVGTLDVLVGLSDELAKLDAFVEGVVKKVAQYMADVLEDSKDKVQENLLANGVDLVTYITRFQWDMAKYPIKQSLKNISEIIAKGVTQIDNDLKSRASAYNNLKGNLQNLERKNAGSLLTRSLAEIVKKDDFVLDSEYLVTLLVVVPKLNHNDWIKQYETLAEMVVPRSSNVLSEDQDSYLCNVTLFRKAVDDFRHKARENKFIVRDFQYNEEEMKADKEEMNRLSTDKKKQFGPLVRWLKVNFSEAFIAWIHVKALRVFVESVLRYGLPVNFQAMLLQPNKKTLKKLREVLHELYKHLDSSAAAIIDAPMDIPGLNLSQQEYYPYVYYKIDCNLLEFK
UniProt P19404, whole entry: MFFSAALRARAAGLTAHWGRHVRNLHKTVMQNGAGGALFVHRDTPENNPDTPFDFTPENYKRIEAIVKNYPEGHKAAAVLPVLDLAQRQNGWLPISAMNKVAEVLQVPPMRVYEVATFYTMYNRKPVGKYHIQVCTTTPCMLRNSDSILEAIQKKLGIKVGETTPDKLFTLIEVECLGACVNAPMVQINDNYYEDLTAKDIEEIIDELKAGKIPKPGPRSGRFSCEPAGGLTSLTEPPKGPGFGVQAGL
UniProt P22612, whole entry, looked up: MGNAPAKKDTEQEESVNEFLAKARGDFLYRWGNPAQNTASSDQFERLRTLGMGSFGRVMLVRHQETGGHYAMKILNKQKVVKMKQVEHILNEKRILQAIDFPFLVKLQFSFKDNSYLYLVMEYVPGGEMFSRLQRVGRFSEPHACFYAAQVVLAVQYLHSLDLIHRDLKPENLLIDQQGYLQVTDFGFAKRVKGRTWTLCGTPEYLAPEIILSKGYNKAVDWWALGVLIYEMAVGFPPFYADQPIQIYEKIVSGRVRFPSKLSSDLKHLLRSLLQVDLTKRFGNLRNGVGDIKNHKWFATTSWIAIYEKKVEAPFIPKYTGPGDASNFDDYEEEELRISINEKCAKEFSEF
UniProt P19484: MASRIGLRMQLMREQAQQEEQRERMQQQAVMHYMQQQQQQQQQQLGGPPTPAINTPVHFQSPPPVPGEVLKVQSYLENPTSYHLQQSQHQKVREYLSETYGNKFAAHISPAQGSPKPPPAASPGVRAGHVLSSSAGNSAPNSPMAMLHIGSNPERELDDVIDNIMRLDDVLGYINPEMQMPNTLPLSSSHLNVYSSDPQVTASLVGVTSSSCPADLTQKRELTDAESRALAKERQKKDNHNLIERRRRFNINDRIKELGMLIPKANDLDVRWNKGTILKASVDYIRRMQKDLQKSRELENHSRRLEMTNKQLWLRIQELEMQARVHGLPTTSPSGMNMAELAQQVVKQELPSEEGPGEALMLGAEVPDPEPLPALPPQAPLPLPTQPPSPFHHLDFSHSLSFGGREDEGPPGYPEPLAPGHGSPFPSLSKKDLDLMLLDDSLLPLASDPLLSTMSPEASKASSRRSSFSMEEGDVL
UniProt P14136, whole entry: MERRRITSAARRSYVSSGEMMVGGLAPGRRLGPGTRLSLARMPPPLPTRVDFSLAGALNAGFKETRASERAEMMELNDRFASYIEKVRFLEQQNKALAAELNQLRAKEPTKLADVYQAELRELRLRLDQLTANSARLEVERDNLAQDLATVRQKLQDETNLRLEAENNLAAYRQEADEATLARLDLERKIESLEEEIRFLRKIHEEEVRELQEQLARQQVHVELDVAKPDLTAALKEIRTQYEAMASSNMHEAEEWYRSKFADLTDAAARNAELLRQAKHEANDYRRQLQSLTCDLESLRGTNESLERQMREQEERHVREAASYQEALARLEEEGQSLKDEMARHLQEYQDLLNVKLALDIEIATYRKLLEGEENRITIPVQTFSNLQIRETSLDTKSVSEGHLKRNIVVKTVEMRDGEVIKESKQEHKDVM
UniProt P21741: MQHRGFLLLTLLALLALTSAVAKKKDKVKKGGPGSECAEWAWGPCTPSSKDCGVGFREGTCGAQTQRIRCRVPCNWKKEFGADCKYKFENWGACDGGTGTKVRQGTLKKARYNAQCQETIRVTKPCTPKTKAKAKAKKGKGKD
UniProt P20962: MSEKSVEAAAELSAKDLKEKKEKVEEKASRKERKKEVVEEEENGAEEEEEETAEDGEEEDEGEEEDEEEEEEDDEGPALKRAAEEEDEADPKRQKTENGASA
UniProt P23246: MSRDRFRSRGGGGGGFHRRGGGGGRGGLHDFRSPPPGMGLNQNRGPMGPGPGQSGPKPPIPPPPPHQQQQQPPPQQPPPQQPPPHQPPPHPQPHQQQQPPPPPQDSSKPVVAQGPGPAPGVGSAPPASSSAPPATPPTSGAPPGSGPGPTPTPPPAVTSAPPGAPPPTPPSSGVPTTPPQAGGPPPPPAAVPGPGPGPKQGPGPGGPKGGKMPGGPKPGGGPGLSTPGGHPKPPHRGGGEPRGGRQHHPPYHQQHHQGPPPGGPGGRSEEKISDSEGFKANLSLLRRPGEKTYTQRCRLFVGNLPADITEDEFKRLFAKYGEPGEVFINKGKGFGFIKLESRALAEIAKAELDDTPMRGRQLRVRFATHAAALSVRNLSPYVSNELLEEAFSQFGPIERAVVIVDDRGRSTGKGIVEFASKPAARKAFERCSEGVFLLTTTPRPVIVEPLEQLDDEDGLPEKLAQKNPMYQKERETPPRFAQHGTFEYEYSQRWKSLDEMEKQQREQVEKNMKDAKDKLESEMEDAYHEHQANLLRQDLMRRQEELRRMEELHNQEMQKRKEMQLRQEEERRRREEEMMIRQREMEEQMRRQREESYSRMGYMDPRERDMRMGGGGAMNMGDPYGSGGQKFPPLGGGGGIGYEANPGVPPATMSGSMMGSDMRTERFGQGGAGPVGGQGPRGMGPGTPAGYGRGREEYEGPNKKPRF
UniProt P20042, whole entry: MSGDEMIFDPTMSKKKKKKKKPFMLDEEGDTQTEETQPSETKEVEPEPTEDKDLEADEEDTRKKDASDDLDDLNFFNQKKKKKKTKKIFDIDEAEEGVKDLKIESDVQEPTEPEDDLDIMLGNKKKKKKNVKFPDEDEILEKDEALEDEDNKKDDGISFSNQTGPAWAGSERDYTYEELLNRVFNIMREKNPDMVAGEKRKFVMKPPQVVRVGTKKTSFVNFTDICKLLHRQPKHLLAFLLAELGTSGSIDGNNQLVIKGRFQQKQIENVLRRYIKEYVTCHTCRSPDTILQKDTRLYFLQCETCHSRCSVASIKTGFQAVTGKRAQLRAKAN
UniProt P24864, whole entry: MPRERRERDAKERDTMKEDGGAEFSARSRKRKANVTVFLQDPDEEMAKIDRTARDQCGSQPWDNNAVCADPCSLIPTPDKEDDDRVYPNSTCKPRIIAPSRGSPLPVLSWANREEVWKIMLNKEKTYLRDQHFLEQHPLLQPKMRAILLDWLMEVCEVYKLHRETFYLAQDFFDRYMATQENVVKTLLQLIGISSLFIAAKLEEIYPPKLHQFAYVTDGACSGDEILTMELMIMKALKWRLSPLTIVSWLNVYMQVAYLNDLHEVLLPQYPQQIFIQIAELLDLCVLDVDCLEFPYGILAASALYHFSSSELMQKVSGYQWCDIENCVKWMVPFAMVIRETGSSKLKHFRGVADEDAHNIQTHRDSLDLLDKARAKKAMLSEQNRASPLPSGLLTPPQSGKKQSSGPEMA

Compound: CN[C@@H]1C[C@H]2O[C@@](C)([C@@H]1OC)n1c3ccccc3c3c4c(c5c6ccccc6n2c5c31)C(=O)NC4 [staurosporine]
Assay: log2 fold change of tryptic peptide abundance, ligand vs vehicle (limited proteolysis) (log2 ratio); higher = more trypsin-susceptible (destabilized)
Conditions: ligand concentration: 20 uM; sample: K562 cleared lysate; digestion: 4 min, 22 C (HT-PELSA RT4min, Orbitrap Astral)

Question: How did the log2 fold change turn out when “CD99 (peptide sequence: LCFKENAEQGEVDMESHR, peptide start residue: 153) (UniProt P14209)” was run?
Answer: -1.12

Question: With “CAPN2 (peptide sequence: MPCQLHQVIVAR, peptide start residue: 638) (UniProt P17655)” as the target, how does the log2 fold change read?
Answer: -0.303

Question: For “USF1 (peptide sequence: TENGGQVMYR, peptide start residue: 53) (UniProt P22415)”, which log2 fold change is on record?
Answer: -0.211

Question: Which log2 fold change does the source give for “UniProt P23109 (peptide sequence: YNPVGASELR, peptide start residue: 393)” here?
Answer: -0.243

Question: For “HMGB2 (peptide sequence: SKFEDMAK, peptide start residue: 58) (UniProt P26583)”, which log2 fold change is on record?
Answer: 1.28

Question: How did the log2 fold change turn out when “UniProt P25398 (peptide sequence: DVIEEYFKCKK, peptide start residue: 122)” was run?
Answer: -0.173

Question: How did the log2 fold change turn out when “EIF4B (peptide sequence: LPREPSNPER, peptide start residue: 126) (UniProt P23588)” was run?
Answer: 0.951

Question: For “SDHB (peptide sequence: IKNEVDSTLTFR, peptide start residue: 79) (UniProt P21912)”, which log2 fold change is on record?
Answer: -0.593

Question: For “TNFAIP3 (peptide sequence: TFNGICSTCFKR, peptide start residue: 531) (UniProt P21580)”, which log2 fold change is on record?
Answer: -0.171

Question: “RPL7 (peptide sequence: HYHKEYR, peptide start residue: 56) (UniProt P18124)” was tested. Which log2 fold change did it give?
Answer: 0.327

Question: Which log2 fold change does the source give for “FAH (peptide sequence: ASSVVVSGTPIR, peptide start residue: 163) (UniProt P16930)” here?
Answer: 0.194

Question: With “PFKFB1 (peptide sequence: QENVLVICHQAVMR, peptide start residue: 383) (UniProt P16118)” as the target, how does the log2 fold change read?
Answer: 0.396

Question: How did the log2 fold change turn out when “UniProt P24539 (peptide sequence: RKEQEHMINWVEK, peptide start residue: 209)” was run?
Answer: -0.208

Question: Which log2 fold change does the source give for “CSRP1 (peptide sequence: HEEAPGHRPTTNPNASK, peptide start residue: 92) (UniProt P21291)” here?
Answer: -0.0867

Question: Which log2 fold change does the source give for “XRCC1 (peptide sequence: KTPSKPPAQLSPSVPK, peptide start residue: 256) (UniProt P18887)” here?
Answer: 0.17

Question: “ARF4 (peptide sequence: IQEVADELQK, peptide start residue: 100) (UniProt P18085)” was tested. Which log2 fold change did it give?
Answer: 0.414

Question: Which log2 fold change does the source give for “ACADS (peptide sequence: AEGDSWVLNGTK, peptide start residue: 172) (UniProt P16219)” here?
Answer: -0.242

Question: “UniProt P14618 (peptide sequence: EAEAAIYHLQLFEELRR, peptide start residue: 384)” was tested. Which log2 fold change did it give?
Answer: 0.262

Question: For “POLR2E (peptide sequence: QSLVDMAPK, peptide start residue: 116) (UniProt P19388)”, which log2 fold change is on record?
Answer: 0.307

Question: Which log2 fold change does the source give for “RPS3 (peptide sequence: KPLPDHVSIVEPK, peptide start residue: 202) (UniProt P23396)” here?
Answer: 0.17

Question: “ERCC3 (peptide sequence: QVDESGTKVDEYGAK, peptide start residue: 45) (UniProt P19447)” was tested. Which log2 fold change did it give?
Answer: 0.377

Question: With “ATP6V1C1 (peptide sequence: KNAGSLLTR, peptide start residue: 156) (UniProt P21283)” as the target, how does the log2 fold change read?
Answer: 0.104

Question: How did the log2 fold change turn out when “NF1 (peptide sequence: KVAQLAVINSLEK, peptide start residue: 206) (UniProt P21359)” was run?
Answer: -0.73

Question: “FKBP2 (peptide sequence: KRVDHCPIK, peptide start residue: 37) (UniProt P26885)” was tested. Which log2 fold change did it give?
Answer: 0.635

Question: With “PTPN2 (peptide sequence: MQDTMEENSESALRK, peptide start residue: 337) (UniProt P17706)” as the target, how does the log2 fold change read?
Answer: -0.487

Question: For “FOSL1 (peptide sequence: ALGPPPGVR, peptide start residue: 85) (UniProt P15407)”, which log2 fold change is on record?
Answer: -0.175

Question: Which log2 fold change does the source give for “NDUFV2 (peptide sequence: KPVGKYHIQVCTTTPCMLR, peptide start residue: 125) (UniProt P19404)” here?
Answer: 0.589

Question: Which log2 fold change does the source give for “PRKACG (peptide sequence: KVEAPFIPK, peptide start residue: 310) (UniProt P22612)” here?
Answer: 0.00361

Question: For “TFEB (peptide sequence: FAAHISPAQGSPKPPPAASPGVR, peptide start residue: 104) (UniProt P19484)”, which log2 fold change is on record?
Answer: -0.187

Question: With “GFAP (peptide sequence: GTNESLER, peptide start residue: 335) (UniProt P14136)” as the target, how does the log2 fold change read?
Answer: -0.142

Question: With “PLS3 (peptide sequence: ALENDPDCR, peptide start residue: 133) (UniProt P13797)” as the target, how does the log2 fold change read?
Answer: 0.217

Question: For “PSMB4 (peptide sequence: MEAFLGSR, peptide start residue: 1) (UniProt P28070)”, which log2 fold change is on record?
Answer: -0.149

Question: How did the log2 fold change turn out when “SON (peptide sequence: SAASPVVSSMPER, peptide start residue: 1766) (UniProt P18583)” was run?
Answer: 0.453

Question: How did the log2 fold change turn out when “MDK (peptide sequence: YNAQCQETIR, peptide start residue: 112) (UniProt P21741)” was run?
Answer: -0.177

Question: With “PTMS (peptide sequence: SVEAAAELSAK, peptide start residue: 5) (UniProt P20962)” as the target, how does the log2 fold change read?
Answer: -0.134

Question: Which log2 fold change does the source give for “HIST1H1B (peptide sequence: KATGPPVSELITK, peptide start residue: 37) (UniProt P16401)” here?
Answer: -0.0893

Question: For “SFPQ (peptide sequence: FAQHGTFEYEYSQR, peptide start residue: 480) (UniProt P23246)”, which log2 fold change is on record?
Answer: -0.17

Question: With “EIF2S2 (peptide sequence: EKNPDMVAGEK, peptide start residue: 189) (UniProt P20042)” as the target, how does the log2 fold change read?
Answer: 0.519

Question: Which log2 fold change does the source give for “CCNE1 (peptide sequence: GSPLPVLSWANREEVWK, peptide start residue: 102) (UniProt P24864)” here?
Answer: -0.377

Question: For “CAST (peptide sequence: DKLGERDDTIPPEYR, peptide start residue: 605) (UniProt P20810)”, which log2 fold change is on record?
Answer: -0.289
